Measured values reported in article PMC2862740, “Furin Targeted Drug Delivery for Treatment of Rhabdomyosarcoma in a Mouse Model” (PLoS ONE, 2010).
No constants are given. Whether binding was seen depends on the method and setting. Some entries that bind do so weakly or less than the wild type.

Chains of the proteins cited; added tags and fusions are not shown. Residues count along the entry.
UniProt P09958, residues 108-794: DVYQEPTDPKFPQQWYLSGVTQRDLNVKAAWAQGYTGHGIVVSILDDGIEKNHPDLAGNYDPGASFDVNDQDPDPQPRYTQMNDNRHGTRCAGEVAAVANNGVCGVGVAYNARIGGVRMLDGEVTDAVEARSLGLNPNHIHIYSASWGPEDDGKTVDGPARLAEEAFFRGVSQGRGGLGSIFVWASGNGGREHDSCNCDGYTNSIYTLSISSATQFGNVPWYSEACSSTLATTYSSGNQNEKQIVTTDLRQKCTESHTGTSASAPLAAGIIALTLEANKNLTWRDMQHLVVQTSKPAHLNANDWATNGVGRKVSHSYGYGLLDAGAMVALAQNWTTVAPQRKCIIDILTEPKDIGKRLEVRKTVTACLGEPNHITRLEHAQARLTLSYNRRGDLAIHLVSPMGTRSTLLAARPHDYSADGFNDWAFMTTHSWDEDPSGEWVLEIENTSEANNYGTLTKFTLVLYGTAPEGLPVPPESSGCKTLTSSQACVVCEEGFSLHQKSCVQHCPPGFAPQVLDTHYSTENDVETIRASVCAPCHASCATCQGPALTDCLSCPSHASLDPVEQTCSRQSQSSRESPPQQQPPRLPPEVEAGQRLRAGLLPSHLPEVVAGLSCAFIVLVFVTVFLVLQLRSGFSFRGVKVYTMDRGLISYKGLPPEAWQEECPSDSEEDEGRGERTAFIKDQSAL

Target: furin on furin-overexpressing MRC-5 fibroblasts (MRC-5-FUR) (UniProt P09958)
Assay: phage binding assay on cells; phage on untransfected (MRC-5), furin-overexpressing (MRC-FUR) and empty vector transfected (MRC-EV) fibroblasts in vitro; phage binding quantified over control T7

With CMGTINTRTRRC [phage RMS-P3/RR] the binding was “binds”.
